# Laboratory results from doi:10.1101/2022.08.17.504273.
# Chains of the proteins cited; added tags and fusions are not shown. Lines headed by an entry give the natural chain unless they say otherwise; changes in a name come on top. A line that says so, or that is headed by a name, gives the form on record, which may keep a tag or linker.
# UniProt Q9NZ32: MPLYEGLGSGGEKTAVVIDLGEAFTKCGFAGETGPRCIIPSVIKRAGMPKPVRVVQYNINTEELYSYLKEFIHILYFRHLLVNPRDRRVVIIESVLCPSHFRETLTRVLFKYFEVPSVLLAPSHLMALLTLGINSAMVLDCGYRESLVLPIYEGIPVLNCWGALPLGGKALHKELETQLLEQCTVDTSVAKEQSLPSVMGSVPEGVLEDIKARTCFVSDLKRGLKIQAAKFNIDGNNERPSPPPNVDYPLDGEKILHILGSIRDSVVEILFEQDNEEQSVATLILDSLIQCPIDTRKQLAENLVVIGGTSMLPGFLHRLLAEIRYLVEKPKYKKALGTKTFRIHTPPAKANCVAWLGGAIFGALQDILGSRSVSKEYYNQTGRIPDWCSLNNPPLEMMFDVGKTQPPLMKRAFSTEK
# UniProt Q9UJW0: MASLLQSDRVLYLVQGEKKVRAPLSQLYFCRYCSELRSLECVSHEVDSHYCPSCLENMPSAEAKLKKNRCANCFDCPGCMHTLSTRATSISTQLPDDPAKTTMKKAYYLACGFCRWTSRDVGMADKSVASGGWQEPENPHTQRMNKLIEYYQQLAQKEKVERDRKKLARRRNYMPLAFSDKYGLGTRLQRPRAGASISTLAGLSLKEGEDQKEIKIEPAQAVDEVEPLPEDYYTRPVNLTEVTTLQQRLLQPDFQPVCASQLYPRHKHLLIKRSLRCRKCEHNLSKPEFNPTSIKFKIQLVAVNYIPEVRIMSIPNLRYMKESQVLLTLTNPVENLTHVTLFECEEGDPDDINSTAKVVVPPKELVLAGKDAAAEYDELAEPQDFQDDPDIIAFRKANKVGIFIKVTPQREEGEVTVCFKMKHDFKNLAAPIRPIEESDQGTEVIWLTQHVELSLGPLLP
# UniProt O00399: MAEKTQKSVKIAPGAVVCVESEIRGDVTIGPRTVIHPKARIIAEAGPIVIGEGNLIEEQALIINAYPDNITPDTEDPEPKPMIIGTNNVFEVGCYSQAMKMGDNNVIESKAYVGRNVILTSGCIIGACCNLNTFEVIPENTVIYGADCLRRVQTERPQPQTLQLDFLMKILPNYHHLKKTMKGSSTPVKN
# UniProt Q9BTE1: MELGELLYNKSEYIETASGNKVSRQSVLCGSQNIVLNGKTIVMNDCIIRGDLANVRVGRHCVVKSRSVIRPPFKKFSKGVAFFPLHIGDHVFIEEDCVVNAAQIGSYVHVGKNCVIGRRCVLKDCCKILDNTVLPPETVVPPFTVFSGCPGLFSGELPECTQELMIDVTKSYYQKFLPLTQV
# human Arf6 (12-175_Q67L) (P62330, form named): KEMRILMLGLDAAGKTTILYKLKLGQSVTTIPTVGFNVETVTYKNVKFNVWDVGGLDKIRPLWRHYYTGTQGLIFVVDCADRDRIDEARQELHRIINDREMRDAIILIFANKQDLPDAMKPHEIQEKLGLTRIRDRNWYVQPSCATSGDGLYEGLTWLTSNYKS
# Residue numbers refer to the chain shown, from its start. No constants are given. Whether binding was seen depends on the method and setting. Some results given as binding are weak or reduced against the parent protein; the word gives no strength.
# Key:
# Test in all cases: pull-down
# [1] = molecular target: T1, mouse JIP3 186-505_L383A/E386A (mouse) (UniProt Q9ESN9)
# T1 sequence: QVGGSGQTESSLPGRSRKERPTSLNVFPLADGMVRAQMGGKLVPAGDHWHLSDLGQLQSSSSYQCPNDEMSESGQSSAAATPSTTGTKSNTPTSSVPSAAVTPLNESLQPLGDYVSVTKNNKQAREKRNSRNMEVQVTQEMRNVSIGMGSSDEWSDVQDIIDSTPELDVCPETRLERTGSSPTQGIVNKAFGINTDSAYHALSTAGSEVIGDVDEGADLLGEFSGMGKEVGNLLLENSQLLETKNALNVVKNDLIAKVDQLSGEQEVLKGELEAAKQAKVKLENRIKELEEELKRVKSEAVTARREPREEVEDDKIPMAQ
# [2] = molecular target: T2, mouse JIP3 186-505_L439P (mouse) (UniProt Q9ESN9)
# T2 sequence: T1 sequence with A198L, A201E, L254P
# [3] = molecular target: T3, mouse JIP3^185–505 (JIP3 186-505) (mouse) (UniProt Q9ESN9)
# T3 sequence: T1 sequence with A198L, A201E
binding [1],binding [2],binding [3],Substance
no binding,binds,binds,"dynactin pointed end complex (Arp11, p62, p27, p25-6xHis) (from UniProt Q9NZ32;Q9UJW0;O00399;Q9BTE1)"
–,no binding,–,human Arf6 (12-175_Q67L) (from UniProt P62330 12-175) (domain or fragment)
